Reference: the supplement of paper PMC12823440, “Inhibitors supercharge kinase turnover through native proteolytic circuits” (Nature, 2025)
Where a name gives a salt, the structure may show the parent alone. The list shows a part of the results. The calls rarely recur for the same compound in another form.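 Kinases were expressed as nanoluciferase fusions in K562 cells and luminescence was read every 4 h between 2 and 18 h as percent of control, DMSO set to 100% and a positive control to 0%. A time point counts as decreased when the signal drops significantly (2 sigma). The hit call is the authors' own, does not follow from the count of time points alone, and its rule is not shown.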

Chains of the proteins cited; added tags and fusions are not shown. Lines headed by an entry give the natural chain unless they say otherwise; changes in a name come on top.
UniProt Q16288, whole entry, looked up: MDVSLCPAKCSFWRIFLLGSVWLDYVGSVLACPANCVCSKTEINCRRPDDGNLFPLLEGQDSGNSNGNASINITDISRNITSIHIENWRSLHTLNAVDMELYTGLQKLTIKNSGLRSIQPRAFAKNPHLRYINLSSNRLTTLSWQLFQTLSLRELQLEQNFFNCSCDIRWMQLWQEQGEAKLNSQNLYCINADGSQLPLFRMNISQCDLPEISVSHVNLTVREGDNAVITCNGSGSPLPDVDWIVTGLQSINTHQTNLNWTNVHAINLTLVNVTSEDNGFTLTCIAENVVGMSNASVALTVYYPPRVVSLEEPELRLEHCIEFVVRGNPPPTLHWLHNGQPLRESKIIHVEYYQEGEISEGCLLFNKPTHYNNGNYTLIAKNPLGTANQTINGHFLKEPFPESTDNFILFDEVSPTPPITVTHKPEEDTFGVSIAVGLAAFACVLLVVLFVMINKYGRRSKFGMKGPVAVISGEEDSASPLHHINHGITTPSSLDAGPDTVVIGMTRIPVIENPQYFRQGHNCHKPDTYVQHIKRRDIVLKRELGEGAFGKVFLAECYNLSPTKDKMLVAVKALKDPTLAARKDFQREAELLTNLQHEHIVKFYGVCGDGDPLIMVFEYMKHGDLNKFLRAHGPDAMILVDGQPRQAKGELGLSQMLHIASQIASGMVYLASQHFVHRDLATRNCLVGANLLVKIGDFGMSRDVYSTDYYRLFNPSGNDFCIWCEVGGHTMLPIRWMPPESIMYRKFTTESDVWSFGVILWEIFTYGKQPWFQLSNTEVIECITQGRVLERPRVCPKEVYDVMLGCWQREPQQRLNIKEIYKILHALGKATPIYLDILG
UniProt Q96KB5: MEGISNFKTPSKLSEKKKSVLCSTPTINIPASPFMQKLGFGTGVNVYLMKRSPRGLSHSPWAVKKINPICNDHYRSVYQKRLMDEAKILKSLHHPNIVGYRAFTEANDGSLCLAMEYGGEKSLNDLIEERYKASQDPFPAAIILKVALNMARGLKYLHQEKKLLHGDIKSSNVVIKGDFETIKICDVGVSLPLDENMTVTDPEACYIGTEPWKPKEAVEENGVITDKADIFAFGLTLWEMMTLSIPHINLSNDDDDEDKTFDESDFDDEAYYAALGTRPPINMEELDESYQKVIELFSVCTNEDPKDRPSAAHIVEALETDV
UniProt P09619, whole entry: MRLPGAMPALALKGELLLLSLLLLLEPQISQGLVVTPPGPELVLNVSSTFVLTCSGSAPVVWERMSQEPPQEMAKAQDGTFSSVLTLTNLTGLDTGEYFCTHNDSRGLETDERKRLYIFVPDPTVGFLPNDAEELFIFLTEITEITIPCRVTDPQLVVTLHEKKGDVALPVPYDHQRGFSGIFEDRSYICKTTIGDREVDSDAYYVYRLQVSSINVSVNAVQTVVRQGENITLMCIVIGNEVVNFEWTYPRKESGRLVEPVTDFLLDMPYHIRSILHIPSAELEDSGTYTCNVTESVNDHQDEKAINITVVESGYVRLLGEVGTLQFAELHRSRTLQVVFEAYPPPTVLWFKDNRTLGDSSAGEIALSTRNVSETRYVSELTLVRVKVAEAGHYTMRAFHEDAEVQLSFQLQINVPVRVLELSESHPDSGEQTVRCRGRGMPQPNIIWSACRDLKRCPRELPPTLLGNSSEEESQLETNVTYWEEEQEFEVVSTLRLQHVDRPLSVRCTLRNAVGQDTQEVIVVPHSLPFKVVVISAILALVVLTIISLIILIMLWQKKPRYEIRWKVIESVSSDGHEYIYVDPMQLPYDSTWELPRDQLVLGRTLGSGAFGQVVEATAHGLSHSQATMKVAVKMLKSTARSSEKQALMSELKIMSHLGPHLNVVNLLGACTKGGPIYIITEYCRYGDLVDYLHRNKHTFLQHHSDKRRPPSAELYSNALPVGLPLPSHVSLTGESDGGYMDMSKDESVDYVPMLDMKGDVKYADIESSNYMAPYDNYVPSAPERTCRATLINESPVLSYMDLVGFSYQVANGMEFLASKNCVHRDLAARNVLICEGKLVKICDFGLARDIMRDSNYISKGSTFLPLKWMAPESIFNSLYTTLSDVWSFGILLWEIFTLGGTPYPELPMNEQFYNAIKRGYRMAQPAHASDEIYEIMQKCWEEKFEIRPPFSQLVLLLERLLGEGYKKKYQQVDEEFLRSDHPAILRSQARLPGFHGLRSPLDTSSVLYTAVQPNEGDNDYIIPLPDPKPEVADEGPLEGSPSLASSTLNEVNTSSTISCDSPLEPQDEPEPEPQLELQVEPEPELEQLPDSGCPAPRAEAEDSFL
UniProt O15530: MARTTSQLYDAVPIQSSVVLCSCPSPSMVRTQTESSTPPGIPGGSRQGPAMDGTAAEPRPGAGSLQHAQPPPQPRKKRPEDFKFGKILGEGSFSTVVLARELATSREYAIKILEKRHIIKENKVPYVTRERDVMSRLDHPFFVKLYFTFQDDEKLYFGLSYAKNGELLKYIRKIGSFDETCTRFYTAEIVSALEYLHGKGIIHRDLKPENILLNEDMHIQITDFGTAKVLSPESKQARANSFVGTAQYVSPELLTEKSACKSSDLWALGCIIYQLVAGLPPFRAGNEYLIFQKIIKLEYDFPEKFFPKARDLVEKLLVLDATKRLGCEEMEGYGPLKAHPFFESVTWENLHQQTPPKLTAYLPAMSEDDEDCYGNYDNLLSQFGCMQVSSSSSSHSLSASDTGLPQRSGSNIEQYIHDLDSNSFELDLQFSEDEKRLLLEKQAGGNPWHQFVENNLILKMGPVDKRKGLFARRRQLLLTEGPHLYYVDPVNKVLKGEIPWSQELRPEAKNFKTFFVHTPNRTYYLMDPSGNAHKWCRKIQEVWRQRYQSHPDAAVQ
UniProt P42356, whole entry, looked up: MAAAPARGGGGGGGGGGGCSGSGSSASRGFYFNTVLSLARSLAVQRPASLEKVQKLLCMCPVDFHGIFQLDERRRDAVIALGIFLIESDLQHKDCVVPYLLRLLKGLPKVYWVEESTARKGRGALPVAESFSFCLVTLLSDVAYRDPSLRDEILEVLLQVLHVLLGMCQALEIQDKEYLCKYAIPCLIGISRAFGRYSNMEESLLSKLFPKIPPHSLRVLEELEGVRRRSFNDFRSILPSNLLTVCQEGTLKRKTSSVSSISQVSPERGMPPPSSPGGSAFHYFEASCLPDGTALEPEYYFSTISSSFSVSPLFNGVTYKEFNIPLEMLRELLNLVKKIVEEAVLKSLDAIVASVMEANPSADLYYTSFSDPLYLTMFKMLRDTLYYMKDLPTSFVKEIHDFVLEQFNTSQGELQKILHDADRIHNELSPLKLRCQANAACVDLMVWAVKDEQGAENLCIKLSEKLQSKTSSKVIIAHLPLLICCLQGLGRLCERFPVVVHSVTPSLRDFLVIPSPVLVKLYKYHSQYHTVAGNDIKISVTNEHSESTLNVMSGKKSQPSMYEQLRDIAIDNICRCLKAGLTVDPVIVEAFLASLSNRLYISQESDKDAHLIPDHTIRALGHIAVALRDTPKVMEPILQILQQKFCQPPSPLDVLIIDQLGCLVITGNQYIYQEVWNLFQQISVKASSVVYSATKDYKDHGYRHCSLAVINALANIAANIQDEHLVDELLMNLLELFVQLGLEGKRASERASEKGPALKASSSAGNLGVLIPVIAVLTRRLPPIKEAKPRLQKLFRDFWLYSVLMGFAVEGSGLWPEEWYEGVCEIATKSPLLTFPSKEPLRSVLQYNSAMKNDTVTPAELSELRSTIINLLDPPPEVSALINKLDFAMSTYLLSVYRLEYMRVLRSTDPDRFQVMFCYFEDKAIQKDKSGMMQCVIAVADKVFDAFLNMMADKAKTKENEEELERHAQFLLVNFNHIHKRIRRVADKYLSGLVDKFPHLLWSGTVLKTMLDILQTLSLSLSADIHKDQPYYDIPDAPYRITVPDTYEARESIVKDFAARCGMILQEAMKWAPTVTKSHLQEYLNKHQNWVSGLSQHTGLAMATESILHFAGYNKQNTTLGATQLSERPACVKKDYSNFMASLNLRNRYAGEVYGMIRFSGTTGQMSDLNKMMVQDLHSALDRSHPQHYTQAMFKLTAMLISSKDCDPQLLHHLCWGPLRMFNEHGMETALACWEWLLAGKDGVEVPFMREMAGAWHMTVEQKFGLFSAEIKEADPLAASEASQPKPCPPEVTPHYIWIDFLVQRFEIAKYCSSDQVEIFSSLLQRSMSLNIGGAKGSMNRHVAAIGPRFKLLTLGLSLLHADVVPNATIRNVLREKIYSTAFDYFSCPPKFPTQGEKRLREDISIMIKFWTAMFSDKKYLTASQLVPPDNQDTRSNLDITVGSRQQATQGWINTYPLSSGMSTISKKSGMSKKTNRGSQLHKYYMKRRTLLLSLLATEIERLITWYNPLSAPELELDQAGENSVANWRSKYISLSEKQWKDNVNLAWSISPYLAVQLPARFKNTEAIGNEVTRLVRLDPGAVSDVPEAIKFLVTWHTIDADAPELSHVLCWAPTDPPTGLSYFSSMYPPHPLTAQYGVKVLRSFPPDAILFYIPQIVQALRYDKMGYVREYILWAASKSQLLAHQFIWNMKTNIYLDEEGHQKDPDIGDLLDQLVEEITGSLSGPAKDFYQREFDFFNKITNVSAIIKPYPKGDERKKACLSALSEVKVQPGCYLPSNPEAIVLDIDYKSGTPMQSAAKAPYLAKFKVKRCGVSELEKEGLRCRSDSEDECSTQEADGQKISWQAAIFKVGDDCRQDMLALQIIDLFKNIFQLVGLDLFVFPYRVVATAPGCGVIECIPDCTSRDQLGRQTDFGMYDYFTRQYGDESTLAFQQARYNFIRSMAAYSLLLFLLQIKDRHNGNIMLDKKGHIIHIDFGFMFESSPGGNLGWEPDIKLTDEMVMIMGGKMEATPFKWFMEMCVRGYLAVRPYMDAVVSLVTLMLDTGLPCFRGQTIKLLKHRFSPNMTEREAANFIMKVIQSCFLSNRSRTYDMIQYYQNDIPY
UniProt Q9UBF8: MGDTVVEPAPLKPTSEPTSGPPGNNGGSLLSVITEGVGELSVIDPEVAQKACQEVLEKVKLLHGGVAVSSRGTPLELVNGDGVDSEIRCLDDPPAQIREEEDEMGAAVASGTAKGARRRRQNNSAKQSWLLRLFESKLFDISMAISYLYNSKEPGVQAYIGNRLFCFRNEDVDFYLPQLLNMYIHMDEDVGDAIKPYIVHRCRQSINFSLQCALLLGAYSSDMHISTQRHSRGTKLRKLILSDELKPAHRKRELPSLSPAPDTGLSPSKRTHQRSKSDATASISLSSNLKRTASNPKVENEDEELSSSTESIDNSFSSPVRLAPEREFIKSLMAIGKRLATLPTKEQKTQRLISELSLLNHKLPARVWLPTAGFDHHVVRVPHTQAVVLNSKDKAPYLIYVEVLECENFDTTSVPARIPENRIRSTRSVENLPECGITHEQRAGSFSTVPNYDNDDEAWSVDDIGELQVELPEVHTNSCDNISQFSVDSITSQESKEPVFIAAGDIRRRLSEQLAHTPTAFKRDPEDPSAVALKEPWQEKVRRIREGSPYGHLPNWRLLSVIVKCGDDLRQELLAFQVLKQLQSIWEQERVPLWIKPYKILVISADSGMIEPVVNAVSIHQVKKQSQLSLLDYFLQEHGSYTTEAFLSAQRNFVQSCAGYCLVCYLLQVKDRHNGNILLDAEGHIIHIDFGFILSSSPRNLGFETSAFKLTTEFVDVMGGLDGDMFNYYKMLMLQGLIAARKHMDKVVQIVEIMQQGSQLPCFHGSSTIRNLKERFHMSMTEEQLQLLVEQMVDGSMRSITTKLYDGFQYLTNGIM
UniProt P53350, whole entry: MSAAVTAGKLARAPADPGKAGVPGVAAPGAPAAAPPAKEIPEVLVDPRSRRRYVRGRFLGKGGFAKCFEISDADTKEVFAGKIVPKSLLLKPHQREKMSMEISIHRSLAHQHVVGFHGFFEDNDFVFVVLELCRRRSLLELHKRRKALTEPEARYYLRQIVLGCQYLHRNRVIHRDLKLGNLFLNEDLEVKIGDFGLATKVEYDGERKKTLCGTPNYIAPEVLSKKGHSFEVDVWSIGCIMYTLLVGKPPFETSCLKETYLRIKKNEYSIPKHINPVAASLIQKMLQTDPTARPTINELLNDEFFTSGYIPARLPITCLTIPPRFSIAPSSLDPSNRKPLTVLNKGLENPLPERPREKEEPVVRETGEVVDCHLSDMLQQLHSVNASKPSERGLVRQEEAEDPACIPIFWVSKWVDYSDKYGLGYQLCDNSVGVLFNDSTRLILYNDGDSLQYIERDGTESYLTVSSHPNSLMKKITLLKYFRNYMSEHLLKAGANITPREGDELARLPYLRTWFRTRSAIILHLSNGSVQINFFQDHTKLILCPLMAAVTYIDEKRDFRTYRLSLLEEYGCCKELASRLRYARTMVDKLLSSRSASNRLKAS

Columns and labels:
Test in all cases: number of time points (of 5) at which kinase-Nluc abundance scored as decreased, DMSO-normalised (count); higher = more persistent destabilization
Conditions in all cases: K562; 2-18 h
[1] = target: NTRK3 (UniProt Q16288)
[2] = target: PAK4 (UniProt O96013)
[3] = target: PBK (UniProt Q96KB5)
[4] = target: PDGFRB (UniProt P09619)
[5] = target: PDK1 (UniProt Q15118)
[6] = target: PDPK1 (UniProt O15530)
[7] = target: PIK4CA (UniProt P42356)
[8] = target: PIK4CB (UniProt Q9UBF8)
[9] = target: PLK1 (UniProt P53350)
[10] = target: PRKAA1 (UniProt Q13131)

Measured: number of time points

COCCNCCc1cccc(Nc2ncc3c(n2)-c2ccccc2[C@H](c2ccccc2F)C3)c1 [Derazantinib] (2.5 µM)
0: all assays above

CC(C)n1cnc2c(NCc3cccc(C(F)(F)F)c3)ncnc21 [Longdaysin] (10 µM)
0: all assays above

CC(C)c1cnn2c(NCc3ccccc3)cc(NC[C@H]3CCNC[C@@H]3O)nc12 [Samuraciclib (hydrochloride)] (10 µM)
0: all assays above

C=CC(=O)N1CC[C@H](n2nc(C#Cc3cc(OC)cc(OC)c3)c3c(N)ncnc32)C1 [Futibatinib] (10 µM)
0: all assays above

COc1ccc(C=C(C#N)c2cccnc2)cc1OC (10 µM)
0: all assays above

Reprinted at random: 2 compounds from above
COCCNCCc1cccc(Nc2ncc3c(n2)-c2ccccc2[C@H](c2ccccc2F)C3)c1 [Derazantinib] (2.5 µM)
0: all assays above

CC(C)n1cnc2c(NCc3cccc(C(F)(F)F)c3)ncnc21 [Longdaysin] (10 µM)
0: all assays above

(more compounds)

C/C=C(/C)C(=O)O[C@H]1Cc2cc3ccc(=O)oc3cc2OC1(C)C [Decursinol angelate] (10 µM)
0: all assays above

COc1cc(F)cc([C@@H](CO)NC(=O)[C@@H](C)N2Cc3ccc(-c4nc(NC5CCOCC5)ncc4Cl)cc3C2=O)c1 [ERK1/2 inhibitor 2] (10 µM)
0: all assays above

CC1(C)CC=C(c2nc(C3CC(C)(C)OC(C)(C)C3)ccc2NC(=O)c2nc(C#N)c[nH]2)CC1 [Edicotinib] (2.5 µM)
0: all assays above

c1cc(OCCN2CCCCC2)cc(-c2n[nH]c3ccc(-c4nnc[nH]4)cc23)c1 [CC-401 (hydrochloride)] (10 µM)
1: [6]
0: all other assays above

Oc1cc(O)cc(/C=C/c2ccc(O)c(O)c2)c1 [Piceatannol] (10 µM)
4: [8]
3: [6] | [9] | [10]
2: [7]
0: all other assays above

CCc1nc(-c2cccc(C)c2)c(-c2ccnc(NC(=O)c3ccccc3)c2)s1 (10 µM)
0: all assays above

Nc1nc(N)c(N=O)c(OCC2CCCCC2)n1 (10 µM)
0: all assays above

Cc1cc(C(=O)Nc2cccc(C(=O)Nc3cccc(C(F)(F)F)c3)c2)on1 (10 µM)
0: all assays above

O=C1NC(=NCc2cccs2)S/C1=C\c1ccc2ncccc2c1 (10 µM)
0: all assays above

COc1c(CC=C(C)C)c(O)cc2oc(=O)c(-c3ccc(O)cc3O)cc12 [Glycycoumarin] (10 µM)
0: all assays above

COc1cc(OC)cc(N(CCNC(C)C)c2ccc3ncc(-c4cnn(C)c4)nc3c2)c1 [Erdafitinib] (2.5 µM)
0: all assays above

CNC(=O)c1cc(Oc2ccc(NC(=O)Nc3cc(C(C)(C)C)nn3-c3ccc4ncccc4c3)c(F)c2)ccn1 [Rebastinib] (2.5 µM)
0: [2] | [3] | [5]
4: [4] | [6] | [8]
3: all other assays above

COc1ccc(Oc2cc(NCCC(F)(F)F)c3ncc(-c4ccc(C(=O)NC5CC5)c(C)c4)n3n2)c(F)c1F (2.5 µM)
0: all assays above

COc1cc2c(Nc3ccc(NC(=O)c4ccccc4)cc3)ncnc2cc1OCCCN1CCOCC1 (10 µM)
0: all assays above

CCCCOc1c(C(=O)c2c(F)cc(C)cc2F)c[nH]c2nncc1-2 (10 µM)
0: all assays above

CC(C)C(=O)Nc1ncc(-c2cc(C(F)F)nn2-c2c(Cl)cccc2Cl)s1 (10 µM)
0: all assays above

CC(C)Oc1cc(Nc2nc(N[C@@H](C)c3ccc(F)cn3)ncc2Cl)n[nH]1 (10 µM)
0: all assays above

COc1ccc2c(C(=O)Nc3ccc(NC(=O)c4nn(C5CCN(C(=O)CC(C)(C)C#N)CC5)c5ccc(F)cc45)cc3Cl)cnn2c1 [Src Inhibitor 3] (2.5 µM)
1: [10]
3: [6] | [9]
0: [2] | [3] | [5]
2: all other assays above

Cc1c(NC(=O)c2cc3c(s2)CCCC3)cccc1-c1cn(C)c(=O)c(Nc2ccc([C@@H]3C(=O)N(C)CCN3C)cc2)n1 (10 µM)
0: all assays above

O=c1c(O)c(-c2ccc(O)c(O)c2)oc2cc(O)cc(O)c12 [Quercetin (dihydrate)] (10 µM)
2: [6]
0: all other assays above

CCN(CC)CCCCNc1ncc2cc(-c3cc(OC)cc(OC)c3)c(NC(=O)NC(C)(C)C)nc2n1 (10 µM)
0: all assays above

COc1cc(C)c(Sc2cnc(NC(=O)c3ccc(CNC(C)C(C)(C)C)cc3)s2)cc1C(=O)N1CCN(C(C)=O)CC1 (stereo not given) (2.5 µM)
0: all assays above

N#Cc1ccc2[nH]c(O)c(-c3ccc(CN4CCOCC4)cn3)c2c1 (10 µM)
0: all assays above

CCN1CCN(c2ccc(Nc3cc(N(C)C(=O)Nc4c(Cl)c(OC)cc(OC)c4Cl)ncn3)cc2)CC1 [Infigratinib] (10 µM)
0: all assays above

NC(=O)c1ccc2nc(-c3ccc(Oc4ccc(Cl)cc4)cc3)[nH]c2c1 (10 µM)
0: all assays above

CCn1c(=O)c2cc(C(N)=O)c(N)nc2n(C2CC2)c1=O (10 µM)
0: all assays above

Nc1ncnc2c1c(-c1cccc(OCc3ccccc3)c1)cn2C1CC(CN2CCCC2)C1 (stereo not given) (2.5 µM)
0: all assays above

COc1ccc(F)c(F)c1C(=O)c1cnc(NC2CCN(S(C)(=O)=O)CC2)nc1N (2.5 µM)
0: [2] | [3] | [5] | [9]
3: [6]
2: all other assays above

CC(C)(/C=C(\C#N)C(=O)N1CCC[C@@H](n2nc(-c3ccc(Oc4ccccc4)cc3F)c3c(N)ncnc32)C1)N1CCN(C2COC2)CC1 (2.5 µM)
0: all assays above

Oc1ccc(-c2nc(-c3ccc(F)cc3)c(-c3ccncc3)[nH]2)cc1 (2.5 µM)
0: all assays above

Nc1nc(OCC2CCCCC2)c2[nH]cnc2n1 (10 µM)
0: all assays above

COc1cc2nc(C)nc(N[C@H](C)c3cc(N)cc(C(F)(F)F)c3)c2cc1O[C@H]1CCOC1 (10 µM)
0: all assays above
